The assay relates to P388 leukemia ip, CD2F1 mice, survival T/C. In words: NCI In Vivo Anticancer Drug Screen. Data for tumor model P388 Leukemia (intraperitoneal) in CD2F1 (CDF1) mice. As to conditions: T/C endpoint: median survival time, higher T/C = longer survival.
Setting [1] is: dose: 200.0 mg/kg/injection, schedule: Q01DX005 (ip), vehicle: saline with Tween-80.
Where [2] appears, read: dose: 200.0 mg/kg/injection, schedule: Q01DX005 (ip), vehicle: Klucel (hydroxypropylcellulose) (HPC).
Where [3] appears, read: dose: 25.0 mg/kg/injection, schedule: Q01DX005 (ip), vehicle: Klucel (hydroxypropylcellulose) (HPC).

The list shows only some results of the screen, not a fair sample: it is rich in T/C values a quarter to a half above the control, in often repeated tests (any T/C) and in doses without a T/C. Further doses and runs are listed elsewhere. T/C is the treated group as % of the vehicle group. Some entries give survivors of the animals treated and no T/C: the source files T/C as zero there, which appears to mark a toxic dose or a test without result, not a measured value. Some survivor counts are full or nearly so, which does not show that the dose was tolerated: the source hardly ever lists a survival T/C far under the control, and the zero likely stands for such cases as well. Counts of survivors are from the toxicity check (mostly the fifth day) where no day follows; animals may have died later. Schedule codes are those of the source, read here as Q, the interval in days (D) or hours (H), X, the number of doses. Where survival is the endpoint, this PubChem deposit counts one and a half times the control or more as active, and values a quarter to a half above the control carry no call in these data; other NCI protocols may use other cut-offs. Some doses were run more than once; the results are listed from low to high. Some T/C values are followed by the survivors on the day toxicity was checked, most often the fifth; without a count, all were alive then.

Regarding `O=C1NC(CN2CCCCC2)C(=O)NC1CN1CCCCC1` (stereo not given), where the note is “dose: 240.0 mg/kg/injection, schedule: Q01DX005 (ip), vehicle: Klucel (hydroxypropylcellulose) (HPC)”, the survivor count was 6 of 6.
Turning to `CCCCCC(CN(C)C)C(=O)/C=C/c1ccc(C)cc1` (stereo not given), under setting [1], the survivor count is on record as 1 of 6.
As for `CCCCCCC(/C=C/c1ccc(Cl)c(Cl)c1)=N\Nc1ccc(Cl)cc1Cl`, the survivor count (dose: 50.0 mg/kg/injection, schedule: Q01DX009 (ip), vehicle: saline with Tween-80) is listed as 6 of 6.
As for `CCOC(=O)N1CCN(C(=S)NNC(C)c2cc3ccccc3cn2)CC1` (stereo not given), the survivor count was 6 of 6 (dose: 25.0 mg/kg/injection, schedule: Q01DX005 (ip), vehicle: saline with Tween-80); 0 of 6 (dose: 50.0 mg/kg/injection, schedule: Q01DX005 (ip), vehicle: saline with Tween-80); 0 of 6 (dose: 100.0 mg/kg/injection, schedule: Q01DX005 (ip), vehicle: saline with Tween-80); 0 of 6 under setting [1].
With `NC(=O)C(CC(=O)O)NC(=O)OCc1ccccc1` (stereo not given), the T/C is, setting by setting: (dose: 66.0 mg/kg/injection, schedule: Q01DX009 (ip), vehicle: other) 128 % of control; (dose: 100.0 mg/kg/injection, schedule: Q01DX009 (ip), vehicle: other) 127 % of control.
Turning to `O/N=C1\CN2CCC1CC2`, the survivor count (dose: 200.0 mg/kg/injection, schedule: Q01DX005 (ip), vehicle: saline) is reported as 1 of 6.
In the case of `CC12CCC(CC1=O)C2(C)CC#N` (stereo not given), the survivor count is 0 of 6 (dose: 30.0 mg/kg/injection, schedule: Q01DX005 (ip), vehicle: saline); 0 of 6 (dose: 60.0 mg/kg/injection, schedule: Q01DX005 (ip), vehicle: saline with Tween-80); 0 of 6 (dose: 120.0 mg/kg/injection, schedule: Q01DX005 (ip), vehicle: saline with Tween-80); 0 of 6 (dose: 240.0 mg/kg/injection, schedule: Q01DX005 (ip), vehicle: saline with Tween-80).
As for `CCN(CC)CC(=O)O[C@]1(CC)C(=O)OCc2c1cc1n(c2=O)Cc2cc3ccccc3nc2-1`, the T/C (dose: 2.0 mg/kg/injection, schedule: Q01DX005 (ip), vehicle: water) was 136 % of control; the T/C (dose: 4.0 mg/kg/injection, schedule: Q01DX005 (ip), vehicle: water) was 132 and 141 % of control. Moreover, the survivor count (dose: 16.0 mg/kg/injection, schedule: Q01DX005 (ip), vehicle: water) was 6 of 6.
Turning to `Cc1ccc(N=C(N=C(NC(=O)c2ccccc2)c2ccccc2)c2ccccc2)cc1`, the survivor count (dose: 100.0 mg/kg/injection, schedule: Q01DX009 (ip), vehicle: saline with Tween-80) is 6 of 6 and the survivor count (dose: 200.0 mg/kg/injection, schedule: Q01DX009 (ip), vehicle: saline with Tween-80) is given as 6 of 6.
Turning to `Cc1ccccc1SSCCN`, the survivor count under setting [2] is given as 0 of 5.
Take `CCCCCN(C)/N=N/c1nc[nH]c1C(N)=O`: the T/C (dose: 264.0 mg/kg/injection, schedule: Q04DX003 (ip), vehicle: saline with Tween-80) was 136 % of control.
Take `CN=C(NC)c1ccc(NC(=O)/C=C\c2ccc(/C=C/C(=O)Nc3ccc(C(=NC)NC)cc3)cc2)cc1`: the T/C is, setting by setting: (dose: 1.56 mg/kg/injection, schedule: Q01DX005 (ip), vehicle: Klucel (hydroxypropylcellulose) (HPC)) 134 and 136 % of control; (dose: 3.12 mg/kg/injection, schedule: Q01DX005 (ip), vehicle: Klucel (hydroxypropylcellulose) (HPC)) 125, 137, 144 % of control; (dose: 6.25 mg/kg/injection, schedule: Q01DX005 (ip), vehicle: Klucel (hydroxypropylcellulose) (HPC)) 123, 140, 151, 163 % of control; (dose: 12.5 mg/kg/injection, schedule: Q01DX005 (ip), vehicle: Klucel (hydroxypropylcellulose) (HPC)) 157 [4 of 6 alive], 161, 191, 207 % of control; under setting [3], 105 [8 of 10 alive] and 236 % of control [4 of 5 alive]. Moreover, the survivor count was 0 of 6 under setting [3]; 0 of 6 (dose: 50.0 mg/kg/injection, schedule: Q01DX005 (ip), vehicle: Klucel (hydroxypropylcellulose) (HPC)); 0 of 6 (dose: 100.0 mg/kg/injection, schedule: Q01DX005 (ip), vehicle: Klucel (hydroxypropylcellulose) (HPC)); 0 of 6 under setting [2].
